Results deposited as PubChem BioAssay AID504808 (Drosophila RNAi Screening Center, 2011)
The deposit covers about 21,000 reagents; shown is an unselected part of those with a known target gene and a result. In the full data, 18 (0.084%) were called active. 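Raw counts without plate normalisation, one of two replicates; the ratio scores behind the calls were not deposited.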 The numbers tell different reagents against one gene apart. A plus sign joins genes that one reagent is predicted to hit. Reagent sequences are not shown. The record does not give: the amount of reagent, the time to read-out.

Screen: 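Fly genes required to hold E2F transcription in check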 (primary screen)
Cells: Drosophila S2 cells
Knock-down reagent: long dsRNA against Drosophila genes
Measured: 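Firefly luciferase driven by E2F sites, normalised to Renilla luciferase on the same minimal promoter, measured by plate reader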
Scale: E2F firefly: higher = more E2F reporter activity; Renilla normaliser: higher = more normaliser reporter signal
Active means: 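a knock-down counted as active when the firefly/Renilla E2F signal rose above 50%, a threshold chosen arbitrarily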

Drl-2 #1
- E2F firefly, rep 1: 1.31e5
- Renilla normaliser, rep 1: 4823
- activity call: inactive

Drl-2 #2
- E2F firefly, rep 1: 97869
- Renilla normaliser, rep 1: 4402
- activity call: inactive

Drl-2 #3
- E2F firefly, rep 1: 1.01e5
- Renilla normaliser, rep 1: 4588
- activity call: inactive

kermit
- E2F firefly, rep 1: 3237
- Renilla normaliser, rep 1: 202
- activity call: inactive

CG9072
- E2F firefly, rep 1: 2.15e5
- Renilla normaliser, rep 1: 5772
- activity call: inactive

CG12920
- E2F firefly, rep 1: 1.44e5
- Renilla normaliser, rep 1: 4953
- activity call: inactive

magu
- E2F firefly, rep 1: 2835
- Renilla normaliser, rep 1: 202
- activity call: inactive

AkhR
- E2F firefly, rep 1: 98494
- Renilla normaliser, rep 1: 3743
- activity call: inactive

CG32628 (retired record)
- E2F firefly, rep 1: 90642
- Renilla normaliser, rep 1: 4653
- activity call: inactive

Hacd1
- E2F firefly, rep 1: 88717
- Renilla normaliser, rep 1: 3867
- activity call: inactive

CG32212 + hpRNA:CR33940
- E2F firefly, rep 1: 96895
- Renilla normaliser, rep 1: 4145
- activity call: inactive

sha
- E2F firefly, rep 1: 97047
- Renilla normaliser, rep 1: 3973
- activity call: inactive

Ir67b
- E2F firefly, rep 1: 1.03e5
- Renilla normaliser, rep 1: 4900
- activity call: inactive

CG18557
- E2F firefly, rep 1: 1.51e5
- Renilla normaliser, rep 1: 5454
- activity call: inactive

Hsp68
- E2F firefly, rep 1: 1.03e5
- Renilla normaliser, rep 1: 5515
- activity call: inactive

usp
- E2F firefly, rep 1: 75151
- Renilla normaliser, rep 1: 4224
- activity call: inactive

SCOT
- E2F firefly, rep 1: 74014
- Renilla normaliser, rep 1: 3569
- activity call: inactive

niki
- E2F firefly, rep 1: 1.07e5
- Renilla normaliser, rep 1: 6206
- activity call: inactive

Mical #1
- E2F firefly, rep 1: 1.23e5
- Renilla normaliser, rep 1: 5735
- activity call: inactive

Mical #2
- E2F firefly, rep 1: 1.22e5
- Renilla normaliser, rep 1: 5502
- activity call: inactive

Mical #3
- E2F firefly, rep 1: 1.15e5
- Renilla normaliser, rep 1: 6790
- activity call: inactive

Mical #4
- E2F firefly, rep 1: 1.32e5
- Renilla normaliser, rep 1: 7694
- activity call: inactive

CatB
- E2F firefly, rep 1: 90471
- Renilla normaliser, rep 1: 3622
- activity call: inactive

REPTOR-BP
- E2F firefly, rep 1: 1.69e5
- Renilla normaliser, rep 1: 6063
- activity call: inactive

CG3199
- E2F firefly, rep 1: 97529
- Renilla normaliser, rep 1: 6512
- activity call: inactive

CG15528
- E2F firefly, rep 1: 1.34e5
- Renilla normaliser, rep 1: 6281
- activity call: inactive

CG32221
- E2F firefly, rep 1: 83166
- Renilla normaliser, rep 1: 4505
- activity call: inactive

CG7011 + Prp31
- E2F firefly, rep 1: 76211
- Renilla normaliser, rep 1: 3284
- activity call: inactive

A few values from above.
Value of REPTOR-BP in “E2F firefly, rep 1”: 1.69e5
For “E2F firefly, rep 1”, Drl-2 #2 has 97869
Value for usp in “activity call”: inactive
Hacd1, Renilla normaliser, rep 1 = 3867
